Data: paper PMC9892010
No constants are given. Whether binding was seen depends on the method and setting. For some assays here: In cells and extracts the contact can be indirect. Some results given as binding are weak or reduced against the parent protein; the word gives no strength. For some assays here: Tags and fused reporters may be left off the sequences shown.

The chains behind the UniProt entries cited, without tags or fusion partners. Where a name states a change or a piece, a line headed by the entry shows the natural chain unless it says otherwise.
UniProt P50085: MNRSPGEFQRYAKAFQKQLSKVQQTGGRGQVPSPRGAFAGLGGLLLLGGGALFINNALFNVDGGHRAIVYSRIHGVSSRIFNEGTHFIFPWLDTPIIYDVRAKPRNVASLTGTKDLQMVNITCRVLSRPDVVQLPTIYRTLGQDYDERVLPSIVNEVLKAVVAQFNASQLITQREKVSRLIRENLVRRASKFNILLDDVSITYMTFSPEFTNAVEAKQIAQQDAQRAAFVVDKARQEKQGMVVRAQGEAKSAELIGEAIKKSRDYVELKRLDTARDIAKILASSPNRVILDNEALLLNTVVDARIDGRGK
UniProt P39925: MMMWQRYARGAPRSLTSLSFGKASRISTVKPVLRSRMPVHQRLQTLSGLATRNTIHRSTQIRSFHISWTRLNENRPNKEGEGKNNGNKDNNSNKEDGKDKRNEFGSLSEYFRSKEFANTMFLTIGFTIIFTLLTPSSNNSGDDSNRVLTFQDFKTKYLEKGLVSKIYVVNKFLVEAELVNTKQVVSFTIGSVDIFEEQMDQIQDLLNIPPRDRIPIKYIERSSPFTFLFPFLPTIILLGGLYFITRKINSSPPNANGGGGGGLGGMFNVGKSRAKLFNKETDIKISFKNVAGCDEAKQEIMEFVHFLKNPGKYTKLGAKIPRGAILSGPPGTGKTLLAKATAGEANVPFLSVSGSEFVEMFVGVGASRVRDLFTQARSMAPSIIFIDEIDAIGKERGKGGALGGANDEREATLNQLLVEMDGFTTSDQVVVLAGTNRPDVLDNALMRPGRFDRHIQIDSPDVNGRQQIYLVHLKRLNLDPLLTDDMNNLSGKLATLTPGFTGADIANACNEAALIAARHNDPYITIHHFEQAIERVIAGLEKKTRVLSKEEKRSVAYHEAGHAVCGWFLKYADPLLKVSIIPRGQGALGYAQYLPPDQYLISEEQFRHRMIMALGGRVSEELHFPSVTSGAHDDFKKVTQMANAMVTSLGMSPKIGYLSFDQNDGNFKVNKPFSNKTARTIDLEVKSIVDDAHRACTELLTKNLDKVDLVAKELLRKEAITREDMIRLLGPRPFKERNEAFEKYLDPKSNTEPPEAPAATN
UniProt P40341: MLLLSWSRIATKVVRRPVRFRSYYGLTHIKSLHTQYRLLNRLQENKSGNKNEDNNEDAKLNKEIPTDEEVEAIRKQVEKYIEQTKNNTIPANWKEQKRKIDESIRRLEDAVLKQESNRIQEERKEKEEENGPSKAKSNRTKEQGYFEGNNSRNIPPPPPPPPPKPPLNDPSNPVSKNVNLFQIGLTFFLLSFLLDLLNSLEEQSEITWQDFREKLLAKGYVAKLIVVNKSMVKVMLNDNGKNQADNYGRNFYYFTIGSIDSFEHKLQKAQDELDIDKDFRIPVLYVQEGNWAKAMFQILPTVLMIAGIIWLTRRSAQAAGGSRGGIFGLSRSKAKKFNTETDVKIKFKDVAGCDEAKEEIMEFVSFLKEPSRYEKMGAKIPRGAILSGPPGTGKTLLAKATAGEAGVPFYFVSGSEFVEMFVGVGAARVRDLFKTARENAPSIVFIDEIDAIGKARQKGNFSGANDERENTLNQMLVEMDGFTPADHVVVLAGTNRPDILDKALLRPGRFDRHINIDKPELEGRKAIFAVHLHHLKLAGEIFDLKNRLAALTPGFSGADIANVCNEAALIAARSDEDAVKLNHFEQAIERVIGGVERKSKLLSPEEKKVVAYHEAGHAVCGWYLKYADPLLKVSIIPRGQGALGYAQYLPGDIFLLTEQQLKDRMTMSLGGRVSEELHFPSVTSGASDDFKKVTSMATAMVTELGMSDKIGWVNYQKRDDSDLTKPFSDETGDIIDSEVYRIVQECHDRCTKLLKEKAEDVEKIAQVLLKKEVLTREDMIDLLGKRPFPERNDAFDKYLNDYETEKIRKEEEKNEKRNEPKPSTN
UniProt P25694: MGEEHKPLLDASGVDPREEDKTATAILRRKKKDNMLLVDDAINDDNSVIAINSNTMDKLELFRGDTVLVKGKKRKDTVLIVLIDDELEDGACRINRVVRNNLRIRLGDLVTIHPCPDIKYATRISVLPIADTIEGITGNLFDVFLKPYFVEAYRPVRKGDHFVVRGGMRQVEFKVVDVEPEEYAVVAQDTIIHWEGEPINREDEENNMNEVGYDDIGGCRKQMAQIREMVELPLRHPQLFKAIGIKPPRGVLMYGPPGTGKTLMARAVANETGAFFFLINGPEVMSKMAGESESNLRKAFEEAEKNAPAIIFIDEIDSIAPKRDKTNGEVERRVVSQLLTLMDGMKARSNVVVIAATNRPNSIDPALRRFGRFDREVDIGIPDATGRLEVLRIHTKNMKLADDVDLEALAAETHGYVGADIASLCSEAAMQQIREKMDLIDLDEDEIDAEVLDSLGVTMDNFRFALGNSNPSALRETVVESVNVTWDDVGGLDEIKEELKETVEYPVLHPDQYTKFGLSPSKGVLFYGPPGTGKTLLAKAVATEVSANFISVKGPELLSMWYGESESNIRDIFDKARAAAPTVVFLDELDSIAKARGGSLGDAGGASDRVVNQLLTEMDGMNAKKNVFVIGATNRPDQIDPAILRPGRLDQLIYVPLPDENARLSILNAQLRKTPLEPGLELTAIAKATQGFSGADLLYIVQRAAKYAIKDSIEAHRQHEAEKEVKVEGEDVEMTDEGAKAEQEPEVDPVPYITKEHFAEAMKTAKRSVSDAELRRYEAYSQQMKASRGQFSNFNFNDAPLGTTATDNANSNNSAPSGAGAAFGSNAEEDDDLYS
UniProt P39940: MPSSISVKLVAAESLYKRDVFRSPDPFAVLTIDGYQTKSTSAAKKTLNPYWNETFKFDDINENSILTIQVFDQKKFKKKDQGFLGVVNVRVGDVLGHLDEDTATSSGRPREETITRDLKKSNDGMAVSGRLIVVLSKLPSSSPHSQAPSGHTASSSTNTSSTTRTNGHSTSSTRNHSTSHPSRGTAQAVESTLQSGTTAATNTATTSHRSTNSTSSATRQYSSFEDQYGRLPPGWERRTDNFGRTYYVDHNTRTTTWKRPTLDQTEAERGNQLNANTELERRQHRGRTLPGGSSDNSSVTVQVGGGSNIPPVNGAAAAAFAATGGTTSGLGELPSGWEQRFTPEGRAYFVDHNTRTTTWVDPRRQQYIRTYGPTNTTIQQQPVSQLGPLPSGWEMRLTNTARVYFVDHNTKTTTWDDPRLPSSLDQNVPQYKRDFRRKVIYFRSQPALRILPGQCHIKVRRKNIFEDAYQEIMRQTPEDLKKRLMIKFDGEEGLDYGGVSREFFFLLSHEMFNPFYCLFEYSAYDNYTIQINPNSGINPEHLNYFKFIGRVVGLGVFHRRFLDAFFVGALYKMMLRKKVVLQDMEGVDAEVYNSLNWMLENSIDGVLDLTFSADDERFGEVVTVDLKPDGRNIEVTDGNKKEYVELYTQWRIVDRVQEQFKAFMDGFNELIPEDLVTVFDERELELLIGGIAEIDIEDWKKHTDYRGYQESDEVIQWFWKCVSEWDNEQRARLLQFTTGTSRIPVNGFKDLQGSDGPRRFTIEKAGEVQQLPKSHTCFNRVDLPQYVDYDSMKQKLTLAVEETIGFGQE

What was measured:
Tom40–HA (S. cerevisiae) = target: T1, Tom40–HA (S. cerevisiae) (UniProt P23644); experiment: co-IP; cell extracts of Tom40–HA strains (also in pth2∆, ubx2∆ and tom70∆ backgrounds) lysed with 1% digitonin, anti-HA affinity matrix, SDS–PAGE and immunodetection; the interaction of Rsp5 is called impaired in tom70∆
T1 sequence: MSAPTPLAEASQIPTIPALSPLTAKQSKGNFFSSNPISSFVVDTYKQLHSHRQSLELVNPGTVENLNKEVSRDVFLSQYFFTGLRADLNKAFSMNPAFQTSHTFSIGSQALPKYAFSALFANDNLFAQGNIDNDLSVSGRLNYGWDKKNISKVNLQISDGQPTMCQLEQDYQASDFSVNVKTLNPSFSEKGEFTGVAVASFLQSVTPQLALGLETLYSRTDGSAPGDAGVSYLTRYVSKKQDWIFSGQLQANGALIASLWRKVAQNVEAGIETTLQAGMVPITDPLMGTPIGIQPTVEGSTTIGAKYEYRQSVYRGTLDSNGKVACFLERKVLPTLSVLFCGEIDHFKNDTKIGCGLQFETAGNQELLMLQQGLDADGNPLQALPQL

Ubx2–HA (S. cerevisiae) = target: T2, Ubx2–HA (S. cerevisiae) (UniProt Q04228); experiment: co-IP; isolated Ubx2–HA mitochondria lysed with 1% digitonin, anti-HA affinity matrix, SDS–PAGE and immunodetection
T2 sequence: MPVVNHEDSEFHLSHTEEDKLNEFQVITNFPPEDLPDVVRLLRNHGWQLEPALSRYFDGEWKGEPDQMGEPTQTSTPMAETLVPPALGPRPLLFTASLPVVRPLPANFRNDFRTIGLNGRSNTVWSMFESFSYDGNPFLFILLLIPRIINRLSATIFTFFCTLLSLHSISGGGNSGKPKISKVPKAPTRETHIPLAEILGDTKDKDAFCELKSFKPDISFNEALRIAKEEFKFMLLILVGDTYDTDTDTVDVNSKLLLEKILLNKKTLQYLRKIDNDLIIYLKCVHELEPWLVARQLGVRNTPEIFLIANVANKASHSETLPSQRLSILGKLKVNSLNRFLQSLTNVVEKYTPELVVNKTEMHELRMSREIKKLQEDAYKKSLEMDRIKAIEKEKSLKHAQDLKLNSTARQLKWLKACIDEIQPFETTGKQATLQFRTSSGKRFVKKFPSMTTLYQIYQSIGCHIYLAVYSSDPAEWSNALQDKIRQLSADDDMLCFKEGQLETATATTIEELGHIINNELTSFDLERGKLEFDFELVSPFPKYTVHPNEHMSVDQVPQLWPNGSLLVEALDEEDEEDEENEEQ

[1] = target: T3, Phb1–protein A (S. cerevisiae) (UniProt P40961); experiment: pull-down; Phb1–protein A mitochondria lysed with 1% digitonin, IgG Sepharose, elution by TEV protease, immunodetection
T3 sequence: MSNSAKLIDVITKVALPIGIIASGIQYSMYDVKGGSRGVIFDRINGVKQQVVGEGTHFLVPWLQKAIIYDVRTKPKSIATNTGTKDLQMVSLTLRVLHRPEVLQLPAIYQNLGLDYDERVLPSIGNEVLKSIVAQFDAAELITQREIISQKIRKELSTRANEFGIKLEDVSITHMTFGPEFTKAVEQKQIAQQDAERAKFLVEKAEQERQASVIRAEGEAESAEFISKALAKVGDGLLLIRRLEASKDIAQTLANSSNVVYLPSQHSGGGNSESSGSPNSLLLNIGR

[2] = target: prohibitin/m-AAA supercomplex (S. cerevisiae (endogenous in yeast)) (UniProt P40961+P50085+P39925+P40341); experiment: native gel or EMSA; complexome profiling (csBN–MS): yeast mitochondria lysed with 1% digitonin (protein:digitonin 1:8), blue native gradient gel 2–13%, cryo-sliced into 245 slices, quantitative MS; co-migration of abundance–mass profiles
[3] = target: T4, Om45 (S. cerevisiae (endogenous in yeast)) (UniProt P16547); experiment: as above
T4 sequence: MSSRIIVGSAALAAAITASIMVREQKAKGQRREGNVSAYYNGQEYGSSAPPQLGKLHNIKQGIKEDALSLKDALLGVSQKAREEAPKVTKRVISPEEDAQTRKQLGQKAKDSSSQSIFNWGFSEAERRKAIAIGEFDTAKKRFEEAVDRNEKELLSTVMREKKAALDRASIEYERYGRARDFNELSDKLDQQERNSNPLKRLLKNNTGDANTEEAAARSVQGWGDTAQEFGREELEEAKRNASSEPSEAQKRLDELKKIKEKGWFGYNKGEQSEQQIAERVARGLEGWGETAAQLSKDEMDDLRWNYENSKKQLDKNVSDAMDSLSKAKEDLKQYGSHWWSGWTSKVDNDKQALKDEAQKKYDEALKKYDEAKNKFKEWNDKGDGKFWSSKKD

Cox4His (S. cerevisiae) = target: T5, Cox4His (S. cerevisiae) (UniProt P04037); experiment: pull-down; isolated mitochondria with a His-tagged protein (Tom20–His, Pth2His, Cox4His) lysed with 1% digitonin, 10 mM imidazole, Ni-NTA agarose, elution with 250 mM imidazole, SDS–PAGE and immunodetection
T5 sequence: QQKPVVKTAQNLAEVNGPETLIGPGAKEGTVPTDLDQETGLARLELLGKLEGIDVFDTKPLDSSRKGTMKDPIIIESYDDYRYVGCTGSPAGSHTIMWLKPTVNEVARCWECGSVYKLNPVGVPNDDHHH

[4] = target: T6, Sam50 (S. cerevisiae (endogenous in yeast)) (UniProt P53969); experiment: native gel or EMSA; complexome profiling (csBN–MS): yeast mitochondria lysed with 1% digitonin (protein:digitonin 1:8), blue native gradient gel 2–13%, cryo-sliced into 245 slices, quantitative MS; co-migration of abundance–mass profiles
T6 sequence: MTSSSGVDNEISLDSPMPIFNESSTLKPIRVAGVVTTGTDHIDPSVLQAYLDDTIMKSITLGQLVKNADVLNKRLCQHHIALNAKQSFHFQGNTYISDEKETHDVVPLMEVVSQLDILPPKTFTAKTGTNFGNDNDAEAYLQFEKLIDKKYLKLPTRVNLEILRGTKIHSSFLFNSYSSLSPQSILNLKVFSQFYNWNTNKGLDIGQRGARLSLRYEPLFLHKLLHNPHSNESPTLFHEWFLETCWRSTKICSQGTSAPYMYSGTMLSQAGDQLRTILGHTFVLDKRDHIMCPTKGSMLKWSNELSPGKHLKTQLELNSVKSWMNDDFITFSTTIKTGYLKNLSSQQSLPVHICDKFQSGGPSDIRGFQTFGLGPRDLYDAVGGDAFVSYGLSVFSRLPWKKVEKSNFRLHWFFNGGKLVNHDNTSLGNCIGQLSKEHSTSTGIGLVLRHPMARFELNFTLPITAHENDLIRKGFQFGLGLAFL

AAA-ATPase Cdc48 (from UniProt P25694 1-835) (enzyme)
binding (Tom40–HA (S. cerevisiae)): binds

HECT-type E3 ubiquitin ligase Rsp5 (from UniProt P39940 1-809) (enzyme)
binding (Tom40–HA (S. cerevisiae)): binds

B1: peptidyl-tRNA hydrolase Pth2 (protein, UniProt P34222 1-208)
chain: MEKMTVSSNYTIALWATFTAISFAVGYQLGTSNASSTKKSSATLLRSKEMKEGKLHNDTDEEESESEDESDEDEDIESTSLNDIPGEVRMALVIRQDLGMTKGKIAAQCCHAALSCFRHIATNPARASYNPIMTQRWLNAGQAKITLKCPDKFTMDELYAKAISLGVNAAVIHDAGRTQIAAGSATVLGLGPAPKAVLDQITGDLKLY
binding (Tom40–HA (S. cerevisiae)): binds | binding (Ubx2–HA (S. cerevisiae)): binds

B2: Ubx2 (protein, UniProt Q04228 1-584)
chain: MPVVNHEDSEFHLSHTEEDKLNEFQVITNFPPEDLPDVVRLLRNHGWQLEPALSRYFDGEWKGEPDQMGEPTQTSTPMAETLVPPALGPRPLLFTASLPVVRPLPANFRNDFRTIGLNGRSNTVWSMFESFSYDGNPFLFILLLIPRIINRLSATIFTFFCTLLSLHSISGGGNSGKPKISKVPKAPTRETHIPLAEILGDTKDKDAFCELKSFKPDISFNEALRIAKEEFKFMLLILVGDTYDTDTDTVDVNSKLLLEKILLNKKTLQYLRKIDNDLIIYLKCVHELEPWLVARQLGVRNTPEIFLIANVANKASHSETLPSQRLSILGKLKVNSLNRFLQSLTNVVEKYTPELVVNKTEMHELRMSREIKKLQEDAYKKSLEMDRIKAIEKEKSLKHAQDLKLNSTARQLKWLKACIDEIQPFETTGKQATLQFRTSSGKRFVKKFPSMTTLYQIYQSIGCHIYLAVYSSDPAEWSNALQDKIRQLSADDDMLCFKEGQLETATATTIEELGHIINNELTSFDLERGKLEFDFELVSPFPKYTVHPNEHMSVDQVPQLWPNGSLLVEALDEEDEEDEENEEQ
binding (Tom40–HA (S. cerevisiae)): binds

B3: J protein Mdj2 (protein, UniProt P42834 1-146)
chain: MVLPIIIGLGVTMVALSVKSGLNAWTVYKTLSPLTIAKLNNIRIENPTAGYRDALKFKSSLIDEELKNRLNQYQGGFAPRMTEPEALLILDISAREINHLDEKLLKKKHRKAMVRNHPDRGGSPYMAAKINEAKEVLERSVLLRKR
binding [1]: binds | binding [2]: binds

B4: Om14 (protein, UniProt P38325 1-134)
chain: MSATAKHDSNASPNSDSEDGHHHNNKKECAIEYLKARLNSASAVACGYLQAFVSKTQDFAKVCFLELQNPVVLVNLLLHSSVVCYLCNGYANHNARFLKGKPNSTVLATTAGALGLLTLDGIISKKYYSRYDKK
binding [3]: binds

B5: Shy1 (protein, UniProt P53266 1-389)
chain: MSLLGARSTYRWFSIAASIPTKNAIGKSTYLLASRNQQYRGIITSTVDWKPIKTGKSPNDDSRRERSFGKKIVLGLMFAMPIISFYLGTWQVRRLKWKTKLIAACETKLTYEPIPLPKSFTPDMCEDWEYRKVILTGHFLHNEEMFVGPRKKNGEKGYFLFTPFIRDDTGEKVLIERGWISEEKVAPDSRNLHHLSLPQEEHLKVVCLVRPPKKRGSLQWAKKDPNSRLWQVPDIYDMARSSGCTPIQFQALYDMKDHPIIEEHTRNEASQNNSTSSLWKFWKREPTTAVNGTQAVDNNTSKPRSRQEMPTDQTIEFDERQFIKAGVPIGRKPTIDLKNNHLQYLVTWYGLSFLSTIFLIVALRKAKRGGVVSQDQLMKEKLKHSRKYM
binding (Cox4His (S. cerevisiae)): binds

B6: Cox2 (protein, UniProt P00410 16-251)
chain: DVPTPYACYFQDSATPNQEGILELHDNIMFYLLVILGLVSWMLYTIVMTYSKNPIAYKYIKHGQTIEVIWTIFPAVILLIIAFPSFILLYLCDEVISPAMTIKAIGYQWYWKYEYSDFINDSGETVEFESYVIPDELLEEGQLRLLDTDTSMVVPVDTHIRFVVTAADVIHDFAIPSLGIKVDATPGRLNQVSALIQREGVFYGACSELCGTGHANMPIKIEAVSLPKFLEWLNEQ
binding (Cox4His (S. cerevisiae)): binds

B7: Sam35 (protein, UniProt P14693 1-329)
chain: MVSSFSVPMPVKRIFDTFPLQTYAAQTDKDEAVALEIQRRSYTFTERGGGSSELTVEGTYKLGVYNVFLEANTGAALATDPWCLFVQLALCQKNGLVLPTHSQEQTPSHTCNHEMLVLSRLSNPDEALPILVEGYKKRIIRSTVAISEIMRSRILDDAEQLMYYTLLDTVLYDCWITQIIFCASDAQFMELYSCQKLSGSIVTPLDVENSLLQKLSAKSLKISLTKRNKFQFRHREIVKSMQGVYHNHHNSVNQEQVLNVLFENSKQVLLGLKDMLKSDGQPTYLHLKIASYILCITNVKEPIKLKTFVENECKELVQFAQDTLKNFVQ
binding [4]: binds
